# Where a name gives a salt, the structure may show the parent alone. Some of the results follow. The calls rarely recur for the same compound in another form.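 In K562 cells expressing nanoluciferase-fused kinases, luminescence was recorded at 4 h intervals between 2 and 18 h, normalized as percent of control with DMSO at 100% and a positive control at 0%. A significant (2 sigma) signal drop marks a time point as decreased. The authors' rule for a hit is not shown and takes in more than the number of time points.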
# Chains of the proteins cited; added tags and fusions are not shown. Lines headed by an entry give the natural chain unless they say otherwise; changes in a name come on top.
# UniProt O15530: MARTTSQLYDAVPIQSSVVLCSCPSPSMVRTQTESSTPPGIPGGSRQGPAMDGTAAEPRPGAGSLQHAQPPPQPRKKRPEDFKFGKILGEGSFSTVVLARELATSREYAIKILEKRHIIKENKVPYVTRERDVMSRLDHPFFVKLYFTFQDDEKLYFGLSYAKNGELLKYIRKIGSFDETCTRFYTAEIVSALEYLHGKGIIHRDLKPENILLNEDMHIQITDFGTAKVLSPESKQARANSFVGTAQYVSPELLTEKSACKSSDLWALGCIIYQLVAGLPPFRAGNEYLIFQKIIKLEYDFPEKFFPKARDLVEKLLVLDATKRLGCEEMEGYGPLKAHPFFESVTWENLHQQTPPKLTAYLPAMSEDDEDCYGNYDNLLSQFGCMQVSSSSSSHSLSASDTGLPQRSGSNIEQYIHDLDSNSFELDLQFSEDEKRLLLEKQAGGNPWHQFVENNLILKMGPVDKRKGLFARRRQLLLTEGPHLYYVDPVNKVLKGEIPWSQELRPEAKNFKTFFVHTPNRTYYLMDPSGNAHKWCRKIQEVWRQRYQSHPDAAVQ
# UniProt Q9UBF8: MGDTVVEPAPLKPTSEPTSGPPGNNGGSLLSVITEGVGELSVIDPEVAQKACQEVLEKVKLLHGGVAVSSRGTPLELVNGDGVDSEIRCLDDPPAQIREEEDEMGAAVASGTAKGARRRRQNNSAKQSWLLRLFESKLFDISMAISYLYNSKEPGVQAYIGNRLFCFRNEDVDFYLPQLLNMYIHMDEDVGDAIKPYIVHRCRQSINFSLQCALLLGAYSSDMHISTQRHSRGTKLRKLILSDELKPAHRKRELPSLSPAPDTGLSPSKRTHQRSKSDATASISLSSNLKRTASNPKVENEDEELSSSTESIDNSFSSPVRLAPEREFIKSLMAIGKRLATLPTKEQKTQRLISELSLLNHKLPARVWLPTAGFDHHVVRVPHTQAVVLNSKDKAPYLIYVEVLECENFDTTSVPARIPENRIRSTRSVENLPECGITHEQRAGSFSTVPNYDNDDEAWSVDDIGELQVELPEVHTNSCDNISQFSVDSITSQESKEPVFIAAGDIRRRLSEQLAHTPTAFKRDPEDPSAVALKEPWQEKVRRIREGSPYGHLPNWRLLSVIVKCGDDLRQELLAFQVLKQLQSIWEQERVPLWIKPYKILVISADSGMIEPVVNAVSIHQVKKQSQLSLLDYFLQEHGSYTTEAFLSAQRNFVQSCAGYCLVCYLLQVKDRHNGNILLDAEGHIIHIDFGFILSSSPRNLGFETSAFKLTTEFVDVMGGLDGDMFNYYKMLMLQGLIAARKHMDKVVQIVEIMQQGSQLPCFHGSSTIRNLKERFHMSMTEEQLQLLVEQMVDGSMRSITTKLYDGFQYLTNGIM
# UniProt Q13131: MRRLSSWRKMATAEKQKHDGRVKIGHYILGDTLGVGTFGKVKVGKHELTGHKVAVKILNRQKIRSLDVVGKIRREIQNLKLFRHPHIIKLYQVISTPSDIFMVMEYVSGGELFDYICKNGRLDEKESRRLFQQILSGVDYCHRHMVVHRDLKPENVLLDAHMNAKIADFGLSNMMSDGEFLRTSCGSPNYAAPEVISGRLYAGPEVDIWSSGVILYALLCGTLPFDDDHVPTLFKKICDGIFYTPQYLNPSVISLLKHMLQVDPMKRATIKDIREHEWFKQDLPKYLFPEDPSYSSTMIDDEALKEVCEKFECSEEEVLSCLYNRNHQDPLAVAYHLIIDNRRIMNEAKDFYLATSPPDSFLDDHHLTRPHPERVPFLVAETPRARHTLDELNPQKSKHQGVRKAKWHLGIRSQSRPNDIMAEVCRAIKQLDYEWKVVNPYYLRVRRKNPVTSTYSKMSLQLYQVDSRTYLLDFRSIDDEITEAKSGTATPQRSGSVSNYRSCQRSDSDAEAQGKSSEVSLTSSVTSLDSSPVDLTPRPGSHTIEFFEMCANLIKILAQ
# UniProt Q05397, whole entry, looked up: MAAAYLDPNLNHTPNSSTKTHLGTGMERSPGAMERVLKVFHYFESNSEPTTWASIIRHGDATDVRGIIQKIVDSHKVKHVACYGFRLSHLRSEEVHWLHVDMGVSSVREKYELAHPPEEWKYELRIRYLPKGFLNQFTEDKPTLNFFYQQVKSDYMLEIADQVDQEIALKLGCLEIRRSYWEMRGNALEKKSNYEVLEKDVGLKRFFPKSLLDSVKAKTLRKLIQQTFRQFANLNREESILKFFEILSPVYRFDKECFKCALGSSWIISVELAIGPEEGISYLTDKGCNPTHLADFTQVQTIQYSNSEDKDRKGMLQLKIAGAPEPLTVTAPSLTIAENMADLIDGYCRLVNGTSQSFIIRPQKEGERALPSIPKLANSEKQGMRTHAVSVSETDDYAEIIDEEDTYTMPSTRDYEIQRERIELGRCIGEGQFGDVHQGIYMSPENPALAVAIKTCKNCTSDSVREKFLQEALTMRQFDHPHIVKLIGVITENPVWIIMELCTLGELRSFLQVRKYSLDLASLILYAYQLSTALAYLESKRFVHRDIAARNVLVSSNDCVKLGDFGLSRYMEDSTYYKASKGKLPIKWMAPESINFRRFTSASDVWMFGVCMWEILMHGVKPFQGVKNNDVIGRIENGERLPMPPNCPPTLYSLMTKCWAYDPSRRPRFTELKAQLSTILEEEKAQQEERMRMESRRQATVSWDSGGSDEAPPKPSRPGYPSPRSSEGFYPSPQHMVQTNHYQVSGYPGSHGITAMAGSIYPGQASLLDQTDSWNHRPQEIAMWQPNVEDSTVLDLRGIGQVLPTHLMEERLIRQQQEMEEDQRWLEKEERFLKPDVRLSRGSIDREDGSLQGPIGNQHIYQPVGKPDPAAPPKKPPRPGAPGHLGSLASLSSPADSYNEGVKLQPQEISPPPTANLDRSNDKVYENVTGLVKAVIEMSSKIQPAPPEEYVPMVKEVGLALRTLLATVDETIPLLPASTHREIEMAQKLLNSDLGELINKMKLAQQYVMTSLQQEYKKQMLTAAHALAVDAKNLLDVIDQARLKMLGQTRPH
# UniProt P07949, whole entry, looked up: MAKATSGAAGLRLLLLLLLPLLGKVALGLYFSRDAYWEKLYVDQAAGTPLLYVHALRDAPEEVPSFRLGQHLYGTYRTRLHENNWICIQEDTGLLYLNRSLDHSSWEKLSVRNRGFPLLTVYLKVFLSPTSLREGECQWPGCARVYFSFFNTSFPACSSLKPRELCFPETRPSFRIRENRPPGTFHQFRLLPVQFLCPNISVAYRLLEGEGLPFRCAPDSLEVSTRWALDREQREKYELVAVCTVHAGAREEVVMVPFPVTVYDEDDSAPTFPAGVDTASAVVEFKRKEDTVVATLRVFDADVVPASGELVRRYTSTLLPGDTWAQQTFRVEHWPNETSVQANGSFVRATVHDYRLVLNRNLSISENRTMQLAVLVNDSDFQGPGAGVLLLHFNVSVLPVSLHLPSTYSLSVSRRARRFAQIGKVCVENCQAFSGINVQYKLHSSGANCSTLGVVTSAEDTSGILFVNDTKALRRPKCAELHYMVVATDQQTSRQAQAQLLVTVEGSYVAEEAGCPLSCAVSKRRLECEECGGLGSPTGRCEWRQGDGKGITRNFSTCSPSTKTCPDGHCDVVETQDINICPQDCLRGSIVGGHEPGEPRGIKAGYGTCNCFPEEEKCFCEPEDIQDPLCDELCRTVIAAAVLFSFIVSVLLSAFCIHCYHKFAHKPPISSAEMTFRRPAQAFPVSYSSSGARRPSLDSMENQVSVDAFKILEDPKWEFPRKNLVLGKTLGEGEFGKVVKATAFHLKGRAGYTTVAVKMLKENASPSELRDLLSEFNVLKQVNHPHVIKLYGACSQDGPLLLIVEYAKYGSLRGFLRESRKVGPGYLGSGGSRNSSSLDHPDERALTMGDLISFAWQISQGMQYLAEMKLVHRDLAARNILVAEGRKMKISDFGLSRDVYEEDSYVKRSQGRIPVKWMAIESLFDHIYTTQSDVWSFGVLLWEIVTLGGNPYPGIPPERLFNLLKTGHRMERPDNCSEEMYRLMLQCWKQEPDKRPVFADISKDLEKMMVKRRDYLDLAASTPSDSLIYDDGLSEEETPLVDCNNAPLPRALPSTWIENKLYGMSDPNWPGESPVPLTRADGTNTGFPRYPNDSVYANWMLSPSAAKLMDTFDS
# UniProt P07949, whole entry M918T, looked up: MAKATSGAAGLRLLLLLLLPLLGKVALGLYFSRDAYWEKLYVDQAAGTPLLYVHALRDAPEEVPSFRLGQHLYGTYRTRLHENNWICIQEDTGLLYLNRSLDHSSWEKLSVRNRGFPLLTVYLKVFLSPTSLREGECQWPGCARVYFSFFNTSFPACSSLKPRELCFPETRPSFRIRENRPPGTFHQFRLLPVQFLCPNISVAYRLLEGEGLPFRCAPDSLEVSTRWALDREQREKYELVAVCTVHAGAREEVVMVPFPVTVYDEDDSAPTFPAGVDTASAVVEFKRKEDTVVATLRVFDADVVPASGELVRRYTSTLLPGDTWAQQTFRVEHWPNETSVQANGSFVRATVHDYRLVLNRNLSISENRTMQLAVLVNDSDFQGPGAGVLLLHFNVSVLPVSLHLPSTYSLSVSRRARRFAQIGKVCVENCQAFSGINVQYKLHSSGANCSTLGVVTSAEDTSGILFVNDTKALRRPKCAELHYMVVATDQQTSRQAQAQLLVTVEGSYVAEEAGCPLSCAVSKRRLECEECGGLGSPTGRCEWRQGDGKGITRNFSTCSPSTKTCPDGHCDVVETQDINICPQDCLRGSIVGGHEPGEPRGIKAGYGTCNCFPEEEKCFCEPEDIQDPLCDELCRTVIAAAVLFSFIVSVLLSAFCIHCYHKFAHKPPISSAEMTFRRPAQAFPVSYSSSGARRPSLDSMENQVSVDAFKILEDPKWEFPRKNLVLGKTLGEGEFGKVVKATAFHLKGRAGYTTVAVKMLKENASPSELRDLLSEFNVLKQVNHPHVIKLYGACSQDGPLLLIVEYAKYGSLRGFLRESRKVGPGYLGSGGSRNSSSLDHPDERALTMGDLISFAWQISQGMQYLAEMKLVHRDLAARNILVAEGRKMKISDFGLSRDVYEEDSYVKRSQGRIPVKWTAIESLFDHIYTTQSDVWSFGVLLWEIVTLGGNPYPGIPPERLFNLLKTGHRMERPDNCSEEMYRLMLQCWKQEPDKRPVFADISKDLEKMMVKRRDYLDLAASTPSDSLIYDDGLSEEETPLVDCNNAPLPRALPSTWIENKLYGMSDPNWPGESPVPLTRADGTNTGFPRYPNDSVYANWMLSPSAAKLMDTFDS
# UniProt Q9BRS2: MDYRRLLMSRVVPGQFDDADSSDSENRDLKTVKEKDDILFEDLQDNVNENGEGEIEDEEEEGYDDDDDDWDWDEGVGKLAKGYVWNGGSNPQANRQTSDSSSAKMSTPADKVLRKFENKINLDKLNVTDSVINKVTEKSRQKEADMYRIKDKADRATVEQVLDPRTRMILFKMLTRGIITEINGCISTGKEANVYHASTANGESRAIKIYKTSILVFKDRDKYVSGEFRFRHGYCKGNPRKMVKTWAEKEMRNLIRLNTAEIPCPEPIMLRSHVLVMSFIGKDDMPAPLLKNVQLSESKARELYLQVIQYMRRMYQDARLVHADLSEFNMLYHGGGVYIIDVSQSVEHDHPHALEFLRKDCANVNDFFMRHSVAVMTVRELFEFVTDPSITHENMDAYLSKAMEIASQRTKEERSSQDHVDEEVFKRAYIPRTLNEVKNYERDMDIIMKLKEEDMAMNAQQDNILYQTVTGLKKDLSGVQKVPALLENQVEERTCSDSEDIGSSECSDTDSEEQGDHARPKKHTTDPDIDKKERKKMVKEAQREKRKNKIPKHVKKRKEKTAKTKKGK
# UniProt Q13546: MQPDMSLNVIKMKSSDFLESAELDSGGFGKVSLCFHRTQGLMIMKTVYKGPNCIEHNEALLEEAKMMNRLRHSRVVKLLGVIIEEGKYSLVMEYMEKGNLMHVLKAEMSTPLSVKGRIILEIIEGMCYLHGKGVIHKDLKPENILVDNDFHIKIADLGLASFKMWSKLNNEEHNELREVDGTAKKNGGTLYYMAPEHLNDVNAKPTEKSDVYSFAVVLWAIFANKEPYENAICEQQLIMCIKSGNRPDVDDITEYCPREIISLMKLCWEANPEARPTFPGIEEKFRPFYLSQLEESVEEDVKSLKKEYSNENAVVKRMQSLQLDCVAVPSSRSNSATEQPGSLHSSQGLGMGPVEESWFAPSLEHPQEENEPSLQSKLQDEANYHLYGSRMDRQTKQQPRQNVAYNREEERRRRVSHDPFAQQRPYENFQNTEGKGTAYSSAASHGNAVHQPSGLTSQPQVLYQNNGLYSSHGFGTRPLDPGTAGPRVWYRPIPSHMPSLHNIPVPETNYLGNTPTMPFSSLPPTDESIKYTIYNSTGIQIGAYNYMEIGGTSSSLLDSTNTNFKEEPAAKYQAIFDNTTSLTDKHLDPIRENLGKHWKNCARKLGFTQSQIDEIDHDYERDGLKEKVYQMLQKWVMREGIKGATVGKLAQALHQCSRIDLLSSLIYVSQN
# Legend:
# Assay in all cases: kinase-Nluc reporter destabilization hit call (1 = scored as downregulated) (binary); higher = compound decreases kinase abundance
# Conditions in all cases: K562, 2-18 h
# PDPK1 = PDPK1 (UniProt O15530)
# PIK4CA = PIK4CA (UniProt P42356)
# PIK4CB = PIK4CB (UniProt Q9UBF8)
# PLK1 = PLK1 (UniProt P53350)
# PRKAA1 = PRKAA1 (UniProt Q13131)
# PRKCA = PRKCA (UniProt P17252)
# PTK2 = PTK2 (UniProt Q05397)
# PTK2B = PTK2B (UniProt Q14289)
# RAF1 = RAF1 (UniProt P04049)
# [1] = biological target: RAF1_S257L (clone: RAF1_mut) (UniProt P04049)
# RET = RET (UniProt P07949)
# [2] = biological target: RET_M918T (clone: RET_mut) (UniProt P07949)
# RIOK1 = RIOK1 (UniProt Q9BRS2)
# RIPK1 = RIPK1 (UniProt Q13546)
# RIPK2 = RIPK2 (UniProt O43353)
# ROR2 = ROR2 (UniProt Q01974)
# RPS6KA1 = RPS6KA1 (UniProt Q15418)
# SPHK1 = SPHK1 (UniProt Q9NYA1)
# SRC = SRC (UniProt P12931)
# STK24 = STK24 (UniProt Q9Y6E0)
SMILES,kinase-Nluc reporter destabilization hit call (PDPK1; 10 µM),kinase-Nluc reporter destabilization hit call (PIK4CA; 10 µM),kinase-Nluc reporter destabilization hit call (PIK4CB; 10 µM),kinase-Nluc reporter destabilization hit call (PLK1; 10 µM),kinase-Nluc reporter destabilization hit call (PRKAA1; 10 µM),kinase-Nluc reporter destabilization hit call (PRKCA; 10 µM),kinase-Nluc reporter destabilization hit call (PTK2; 10 µM),kinase-Nluc reporter destabilization hit call (PTK2B; 10 µM),kinase-Nluc reporter destabilization hit call (RAF1; 10 µM),kinase-Nluc reporter destabilization hit call ([1]; 10 µM),kinase-Nluc reporter destabilization hit call (RET; 10 µM),kinase-Nluc reporter destabilization hit call ([2]; 10 µM),kinase-Nluc reporter destabilization hit call (RIOK1; 10 µM),kinase-Nluc reporter destabilization hit call (RIPK1; 10 µM),kinase-Nluc reporter destabilization hit call (RIPK2; 10 µM),kinase-Nluc reporter destabilization hit call (ROR2; 10 µM),kinase-Nluc reporter destabilization hit call (RPS6KA1; 10 µM),kinase-Nluc reporter destabilization hit call (SPHK1; 10 µM),kinase-Nluc reporter destabilization hit call (SRC; 10 µM),kinase-Nluc reporter destabilization hit call (STK24; 10 µM),kinase-Nluc reporter destabilization hit call (PDPK1; 2.5 µM),kinase-Nluc reporter destabilization hit call (PIK4CA; 2.5 µM),kinase-Nluc reporter destabilization hit call (PIK4CB; 2.5 µM),kinase-Nluc reporter destabilization hit call (PLK1; 2.5 µM),kinase-Nluc reporter destabilization hit call (PRKAA1; 2.5 µM),kinase-Nluc reporter destabilization hit call (PRKCA; 2.5 µM),kinase-Nluc reporter destabilization hit call (PTK2; 2.5 µM),kinase-Nluc reporter destabilization hit call (PTK2B; 2.5 µM),kinase-Nluc reporter destabilization hit call (RAF1; 2.5 µM),kinase-Nluc reporter destabilization hit call ([1]; 2.5 µM),kinase-Nluc reporter destabilization hit call (RET; 2.5 µM),kinase-Nluc reporter destabilization hit call ([2]; 2.5 µM),kinase-Nluc reporter destabilization hit call (RIOK1; 2.5 µM),kinase-Nluc reporter destabilization hit call (RIPK1; 2.5 µM),kinase-Nluc reporter destabilization hit call (RIPK2; 2.5 µM),kinase-Nluc reporter destabilization hit call (ROR2; 2.5 µM),kinase-Nluc reporter destabilization hit call (RPS6KA1; 2.5 µM),kinase-Nluc reporter destabilization hit call (SPHK1; 2.5 µM),kinase-Nluc reporter destabilization hit call (SRC; 2.5 µM),kinase-Nluc reporter destabilization hit call (STK24; 2.5 µM)
CNc1ncc2cc(-c3ccc(-c4cccc(C)n4)cc3Cl)c(=O)n(C[C@H]3OC[C@H](N)CO3)c2n1,inactive: 0,inactive: 0,inactive: 0,inactive: 0,inactive: 0,inactive: 0,inactive: 0,inactive: 0,inactive: 0,inactive: 0,inactive: 0,inactive: 0,inactive: 0,inactive: 0,inactive: 0,inactive: 0,inactive: 0,inactive: 0,inactive: 0,inactive: 0,,,,,,,,,,,,,,,,,,,,
O=C(Nc1cnn2ccc(N3CCC[C@@H]3c3cc(F)ccc3F)nc12)N1CC[C@H](O)C1 [Larotrectinib],inactive: 0,inactive: 0,inactive: 0,inactive: 0,inactive: 0,inactive: 0,inactive: 0,inactive: 0,inactive: 0,inactive: 0,inactive: 0,inactive: 0,inactive: 0,inactive: 0,inactive: 0,inactive: 0,inactive: 0,inactive: 0,inactive: 0,inactive: 0,,,,,,,,,,,,,,,,,,,,
FC(F)(F)c1ccc(CNc2ccc(Cc3c[nH]c4ncc(Cl)cc34)cn2)cn1 [Pexidartinib (hydrochloride)],inactive: 0,inactive: 0,inactive: 0,inactive: 0,inactive: 0,inactive: 0,inactive: 0,inactive: 0,inactive: 0,inactive: 0,inactive: 0,inactive: 0,inactive: 0,inactive: 0,inactive: 0,inactive: 0,inactive: 0,inactive: 0,inactive: 0,inactive: 0,,,,,,,,,,,,,,,,,,,,
Cc1cc(Nc2ncc(Cl)c(Nc3ccccc3S(=O)(=O)C(C)C)n2)c(OC(C)C)cc1C1CCNCC1 [Ceritinib dihydrochloride],,,,,,,,,,,,,,,,,,,,,inactive: 0,inactive: 0,inactive: 0,inactive: 0,inactive: 0,inactive: 0,inactive: 0,inactive: 0,inactive: 0,inactive: 0,inactive: 0,inactive: 0,inactive: 0,inactive: 0,inactive: 0,inactive: 0,inactive: 0,inactive: 0,inactive: 0,inactive: 0
C=CC(=O)Nc1cc(Nc2ncc(C(=O)OC(C)C)c(-c3cn(C)c4ccccc34)n2)c(OC)cc1N(C)CCN(C)C [Mobocertinib],inactive: 0,inactive: 0,inactive: 0,inactive: 0,inactive: 0,inactive: 0,inactive: 0,inactive: 0,inactive: 0,inactive: 0,inactive: 0,inactive: 0,inactive: 0,inactive: 0,inactive: 0,inactive: 0,inactive: 0,inactive: 0,inactive: 0,inactive: 0,,,,,,,,,,,,,,,,,,,,
COc1ccc(S(=O)(=O)Nc2ccccc2CN(C)C/C=C/c2ccc(Cl)cc2)cc1 [KN-92 (phosphate)],,,,,,,,,,,,,,,,,,,,,inactive: 0,inactive: 0,inactive: 0,inactive: 0,inactive: 0,inactive: 0,inactive: 0,inactive: 0,inactive: 0,inactive: 0,inactive: 0,inactive: 0,inactive: 0,inactive: 0,inactive: 0,inactive: 0,inactive: 0,inactive: 0,inactive: 0,inactive: 0
CCS(=O)(=O)N1CC(CC#N)(n2cc(-c3ncnc4[nH]ccc34)cn2)C1 [Baricitinib],inactive: 0,inactive: 0,inactive: 0,inactive: 0,inactive: 0,inactive: 0,inactive: 0,inactive: 0,inactive: 0,inactive: 0,inactive: 0,inactive: 0,inactive: 0,inactive: 0,inactive: 0,inactive: 0,inactive: 0,inactive: 0,inactive: 0,inactive: 0,,,,,,,,,,,,,,,,,,,,
C=CC(=O)Nc1cc(Nc2nccc(-c3cn(C4CC4)c4ccccc34)n2)c(OC)cc1N(C)CCN(C)C [Almonertinib (hydrochloride)],,,,,,,,,,,,,,,,,,,,,inactive: 0,inactive: 0,inactive: 0,inactive: 0,inactive: 0,inactive: 0,inactive: 0,inactive: 0,inactive: 0,inactive: 0,inactive: 0,inactive: 0,inactive: 0,inactive: 0,inactive: 0,inactive: 0,inactive: 0,inactive: 0,inactive: 0,inactive: 0
Cc1cccc(-c2[nH]c(CNc3ccccc3F)nc2-c2ccc3ncnn3c2)n1 [Vactosertib],,,,,,,,,,,,,,,,,,,,,inactive: 0,inactive: 0,inactive: 0,inactive: 0,inactive: 0,inactive: 0,inactive: 0,inactive: 0,inactive: 0,inactive: 0,inactive: 0,inactive: 0,inactive: 0,inactive: 0,inactive: 0,inactive: 0,inactive: 0,inactive: 0,inactive: 0,inactive: 0
COc1cc2c(-c3cnn4cc(N5CCC(N6CCN(C)CC6)CC5)cnc34)ccnc2cc1F [ALK2-IN-4 (succinate)],inactive: 0,inactive: 0,inactive: 0,inactive: 0,inactive: 0,inactive: 0,inactive: 0,inactive: 0,inactive: 0,inactive: 0,inactive: 0,inactive: 0,inactive: 0,inactive: 0,active: 1,inactive: 0,inactive: 0,inactive: 0,inactive: 0,inactive: 0,,,,,,,,,,,,,,,,,,,,
Cc1ccc(NC(=O)c2ccc(CN3CCN(C)CC3)cc2)cc1Nc1nc(-c2cccnc2)cs1 [Masitinib],,,,,,,,,,,,,,,,,,,,,inactive: 0,inactive: 0,inactive: 0,inactive: 0,inactive: 0,inactive: 0,inactive: 0,inactive: 0,inactive: 0,inactive: 0,inactive: 0,inactive: 0,inactive: 0,inactive: 0,inactive: 0,inactive: 0,inactive: 0,inactive: 0,inactive: 0,inactive: 0
CCN(CC)Cc1ccc(OC)c(-c2cc3c(-c4ccc(C(=O)O)c(C(C)C)c4)ccnc3[nH]2)c1,inactive: 0,inactive: 0,inactive: 0,inactive: 0,inactive: 0,inactive: 0,inactive: 0,inactive: 0,inactive: 0,inactive: 0,inactive: 0,inactive: 0,inactive: 0,inactive: 0,inactive: 0,inactive: 0,inactive: 0,inactive: 0,inactive: 0,inactive: 0,inactive: 0,inactive: 0,inactive: 0,inactive: 0,inactive: 0,inactive: 0,inactive: 0,inactive: 0,inactive: 0,inactive: 0,inactive: 0,inactive: 0,inactive: 0,inactive: 0,inactive: 0,inactive: 0,inactive: 0,inactive: 0,inactive: 0,inactive: 0
COc1cc(/C=C/C(=O)O)ccc1O [Ferulic acid (sodium)],inactive: 0,inactive: 0,inactive: 0,inactive: 0,inactive: 0,inactive: 0,inactive: 0,inactive: 0,inactive: 0,inactive: 0,inactive: 0,inactive: 0,inactive: 0,inactive: 0,inactive: 0,inactive: 0,inactive: 0,inactive: 0,inactive: 0,inactive: 0,,,,,,,,,,,,,,,,,,,,
O=C(c1ccc(F)c(F)c1Nc1ccc(I)cc1F)N1CC(O)([C@@H]2CCCCN2)C1 [Cobimetinib (hemifumarate)],inactive: 0,inactive: 0,inactive: 0,inactive: 0,inactive: 0,inactive: 0,inactive: 0,inactive: 0,inactive: 0,inactive: 0,inactive: 0,inactive: 0,inactive: 0,inactive: 0,inactive: 0,inactive: 0,inactive: 0,inactive: 0,inactive: 0,inactive: 0,,,,,,,,,,,,,,,,,,,,
C#Cc1cccc(Nc2ncnc3cc(OCCOC)c(OCCO)cc23)c1 [Desmethyl Erlotinib],inactive: 0,inactive: 0,inactive: 0,inactive: 0,inactive: 0,inactive: 0,inactive: 0,inactive: 0,inactive: 0,inactive: 0,inactive: 0,inactive: 0,inactive: 0,inactive: 0,inactive: 0,inactive: 0,inactive: 0,inactive: 0,inactive: 0,inactive: 0,,,,,,,,,,,,,,,,,,,,
CC(C)(C)n1nc(-c2cccc3ccccc23)c2c(N)ncnc21 [1-Naphthyl PP1],inactive: 0,inactive: 0,inactive: 0,inactive: 0,inactive: 0,inactive: 0,inactive: 0,inactive: 0,inactive: 0,inactive: 0,inactive: 0,inactive: 0,inactive: 0,inactive: 0,inactive: 0,inactive: 0,inactive: 0,inactive: 0,inactive: 0,inactive: 0,,,,,,,,,,,,,,,,,,,,
Nc1cncc(-c2cn3ccnc3c(Nc3ccc(N4CCN(C5COC5)CC4)cc3)n2)n1 [Lanraplenib (succinate)],inactive: 0,inactive: 0,inactive: 0,inactive: 0,inactive: 0,inactive: 0,inactive: 0,inactive: 0,inactive: 0,inactive: 0,inactive: 0,inactive: 0,inactive: 0,inactive: 0,inactive: 0,inactive: 0,inactive: 0,inactive: 0,inactive: 0,inactive: 0,,,,,,,,,,,,,,,,,,,,
